Some results were stated once for a whole list of compounds, not compound by compound.
System: MCF10A cells
Conditions: Lidocaine 50 mM, Tetracaine 2.5 mM

**Q.** How did the “time until apoptosis (PARP cleavage) is detectable” value turn out when `CCCCNc1ccc(C(=O)OCCN(C)C)cc1` [Tetracaine] was run?
**A.** Its value is at least 6 h.

Source: US8193238B2, “Inhibition of microtubule protrusion in cancer cells” (University of Maryland, Baltimore, priority 2006, dated 2012)
